“Also recorded” adds a separate entry of the source. At least one compound was matched to its structure with a doubt left.
Tests used:
[1] = tested on: microglial lysates (iNOS, HuR, KSRP, Arginase 1, YM1); assay: Western blot analysis of microglial lysates; type: cell-based, mouse
U251 cell line [2] = assay: attached cell colony formation assay; type: cell-based; conditions: 10 uM
Protocol: (§1) The soft agar colony formation assay was performed by using 0.9% and 0.45% agarose for the bottom and the top layers, respectively; cells were incorporated in the top layer. Seaplaque low-melting temperature agarose was purchased from Lonza (Rockland, ME). Five hundred cells per well were utilized in both, the soft agar and the attached colony formation assays, which were performed in 6 well plates; cells were treated with vehicle as the control or with the desired drugs, which were administered twice per week for three weeks. The Crystal violet solution (0.1%) was utilized for colony staining in both assays. The colonies were counted after three weeks of treatment; the plate images were obtained by using Amersham Imager-600 reader (Piscataway, NJ).
(§2) Graphs in FIG. 8D illustrate the average numbers of colonies formed by established U251 and PDGx XD456 cell lines in the attached cell colony formation assay and in the soft agar colony formation assay, which represents anchorage independent cell growth.

Protein sequences, listed by entry. Tags and fused reporters are not part of them. Residues count along the entry.
UniProt P70372, whole entry: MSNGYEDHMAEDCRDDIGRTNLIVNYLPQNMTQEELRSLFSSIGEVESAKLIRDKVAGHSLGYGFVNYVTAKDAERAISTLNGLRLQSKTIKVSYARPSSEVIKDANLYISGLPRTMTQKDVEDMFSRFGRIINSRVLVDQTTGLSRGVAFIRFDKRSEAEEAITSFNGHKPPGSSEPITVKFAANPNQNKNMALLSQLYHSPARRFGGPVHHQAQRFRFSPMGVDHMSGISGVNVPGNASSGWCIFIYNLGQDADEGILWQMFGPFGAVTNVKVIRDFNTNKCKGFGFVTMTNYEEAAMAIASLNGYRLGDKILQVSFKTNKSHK
UniProt Q15717, 2-326 limits assumed: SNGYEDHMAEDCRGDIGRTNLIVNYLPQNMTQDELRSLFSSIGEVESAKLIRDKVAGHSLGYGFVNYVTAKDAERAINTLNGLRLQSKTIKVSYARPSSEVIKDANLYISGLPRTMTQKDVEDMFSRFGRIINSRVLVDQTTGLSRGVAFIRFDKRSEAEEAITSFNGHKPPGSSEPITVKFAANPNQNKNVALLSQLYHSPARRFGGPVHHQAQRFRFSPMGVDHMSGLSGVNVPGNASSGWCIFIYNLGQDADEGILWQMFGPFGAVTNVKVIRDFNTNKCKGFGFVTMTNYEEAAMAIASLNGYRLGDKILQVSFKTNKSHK

XD456 cell line [3] = assay: attached cell colony formation assay; type: cell-based; conditions: 10 uM
Protocol: as §1, §2

U251 cell line [4] = assay: soft agar colony formation assay; type: cell-based; conditions: 10 uM
Protocol: as §1, §2

XD456 cell line [5] = assay: soft agar colony formation assay; type: cell-based; conditions: 10 uM
Protocol: as §1, §2

[6] = tested on: LPS-induced neuroinflammatory response in the CNS; assay: in vivo LPS mouse model of neuroinflammation; parameters: species or system mice; conditions: 15 mg/kg i.p., hippocampal region at 24 hours
Protocol: Administration of LPS intraperitoneally produces an acute neuroinflammatory response in the CNS including activation of microglia with production of inflammatory cytokines and chemokines. This model was used to test the effect of SRI-42127 on attenuating the neuroinflammatory response.
Mice were injected with LPS intraperitoneally (i.p.) and then given SRI-42127 at 15 mg/kg (or vehicle) i.p. starting at 30 min post LPS injection and then three subsequent doses at 6 hours, 12 hours, and 18 hours. Brains were harvested at 24 hours for analysis. […] Quantification methods for HuR localization were similar to immunocytochemistry. […] Nuclear and cytoplasmic HuR immunofluorescence was quantitated to calculate a N/C ratio. […] Next, 20-30 IBA1+ cells from sections in 3 control and 3 treated mice were assessed. […]
Next, the activation state of microglia was studied by measuring IBA1 intensity. Sections from the hippocampal region were stained with IBA1 and fluorescence intensity was measured using Fiji software from 5 sections of 3 mice per group. […]
Finally, the impact of SRI-42127 on infiltration of neutrophils and monocytes into the brain after LPS administration i.p. was assessed. Microglial HuR knockout (KO) mice were also assessed. […]

[7] = tested on: glioma neurospheres of different molecular subtypes; assay: quantitative proteomic data of PDGx neurospheres; type: cell-based; conditions: 3 uM for 18 hours, all neurosphere cell lines
[8] = tested on: inflammatory cytokines, chemokines and other mediators in primary microglial cells; assay: qPCR of inflammatory mediator mRNAs in LPS-activated primary microglia; type: cell-based, mouse; conditions: 24 hours
Protocol: Cultured primary microglial cells isolated from neonatal mouse brain were treated with LPS to achieve activation. Cells were then treated with varying doses of SRI-42127 or vehicle for 24 hours. Total RNA was harvested from the cells and various mRNAs were quantified by qPCR as depicted in FIG. 12. Consistent with microglial activation, there were large inductions of inflammatory cytokines, chemokines and other mediators including IL-1β, IL-6, TNF-α, iNOS, IL-10, CXCL1, CXCL2, CXCL10, CCL2, CCL3, and CCL4. These inductions were as high as ˜3500-fold for IL-6.
Major chemokines CXCL1, CXCL2 and CCL3 were suppressed by more than 2-fold. There was a mixed effect on markers of M2-like markers, with TGF-β1 and YM1 increasing and IL-10 decreasing. As these inflammatory factors were secreted, they were quantified by ELISA in culture medium. The greatest effect was with IL-6 which was suppressed at a lower dose of SRI-42127 (1.7-fold at 0.1 μM) and nearly 10-fold at 1.0 μM. IL-1β and TNF-α were suppressed by 5-fold at 1.0 μM.

[9] = tested on: U251 and XD456 glioma cell lines; assay: western blotting of glioma cell fractions (Bcl2, Mcl1, SOX2, cleaved PARP, cleaved caspase 3); type: cell-based; conditions: U251 and XD456, 10 uM for 48 hours
Protocol: Western blotting was performed. Nuclear and cytoplasmic protein fractionations were performed using NE-PER Nuclear and Cytoplasmic extraction reagents (ThermoFisher Scientific). Anti-lamin A/C and anti-Tubulin alpha antibodies were utilized to verify nuclear and cytoplasmic fractions, respectively. Antibodies against lamin A/C, cleaved PARP, cleaved caspase 3, SOX2, and Mcl1 were purchased from Cell Signaling Technology (Danvers, MA). Anti-Tubulin alpha antibody was purchased from Sigma-Aldrich. Antibodies against HuR, actin, and Bcl2 were purchased from Santa Cruz Biotechnology (Santa Cruz, CA). Polyclonal anti-HuR antibody for HuR/mRNA co-immunoprecipitation was purchased from MBL International (Woburn, MA).
In FIG. 8B, representative western blots confirm reduction of Bcl2 and Mcl1 proteins in cytoplasmic fractions of U251 and XD456 cell lines following treatment with compounds as described herein, 10 uM for 48 hours. SOX2 reduction in nuclear fractions indicates decrease of tumorigenicity of cell lines after treatment with compounds as described herein. Actin and Lamin A/C were utilized for data normalization in cytoplasmic and nuclear fractions, respectively.
In FIG. 8C, representative western blots illustrate appearances of cleaved PARP and cleaved caspase 3 in glioma cell lines after treatment with compounds as described herein, 10 uM for 48 hours. […]

HuR = molecular target: T1, HuR (Mus musculus, UniProt P70372); assay: nuclear/cytoplasmic localization by confocal microscopy in LPS-activated primary microglia; type: cell-based; conditions: 0.5 μM for 24 hours
T1 construct: endogenous in cells; host or cells: primary microglia from neonatal mouse brain

[10] = molecular target: T2, HuR protein with Bcl2 and Mcl1 mRNAs, U251 cell line (Homo sapiens, UniProt Q15717); assay: HuR/mRNA co-immunoprecipitation assay; type: cell-based
T2 construct: endogenous in cells; host or cells: U251

[11] = tested on: allodynia after spared nerve injury; assay: spared nerve injury (sciatic nerve) model, mechanical sensitivity (Von Frey); type: in vivo, mice
Protocol: (§3) Wild-type male mice were subjected to a mid-thoracic contusion injury and then treated with SRI-42127 (15 mg/kg) every 8 hours for 4 days, starting 1 hour after injury. […] Not to be bound by theory, similar to spinal cord injury, chronic pain signaling is triggered by activation of microglia and astroglia in the spinal cord and production of inflammatory mediators (e.g. TNF-α, IL-1β, IL-6, INOS, CCL2) that induce hyperexcitation of sensory neurons in the dorsal horn. Mice underwent sciatic nerve lesioning to produce a spared nerve injury and then received SRI-42127 (15 mg/kg) or vehicle every 6 hours for 4 days (starting 1 h after injury). Mechanical sensitivity was assessed at day 7 post-injury. […] Following this test, a subset of mice in the DMSO-treated group was given an acute administration of SRI-42127 (or DMSO) and their mechanical sensitivity was tested at 30 minutes and 60 minutes post-administration. Acute treatment with SRI-42127 reversed allodynia in these mice for at least 60 minutes (p<0.01, FIG. 21, Panel D).

[12] = tested on: PDGx XD456 intracranial tumor; assay: in vivo mouse glioma model (intracranial); parameters: species or system athymic nude mice; conditions: 15 mg/kg twice a day for three weeks ip
spinal cord injury = assay: mid-thoracic contusion spinal cord injury in mice; type: in vivo; conditions: 15 mg/kg every 8 hours for 4 days, starting 1 hour after injury; listed as SRI-42127
Protocol: as §3

[13] = tested on: monocytes, neutrophils and microglia migrating toward conditioned media from LPS-activated microglia or astroglia; assay: dual chamber transmigration assay; type: cell-based, murine

CN(c1ccc2ncc(-c3ccc4cn[nH]c4c3)n2n1)C1CCOCC1 [Compound 19]
Arginase 1 and YM1 protein [1]: not significantly affected
HuR and KSRP protein [1]: modest but significant attenuation
colonies detected (U251 cell line [2]): No significant numbers of colonies were detected
colonies detected (XD456 cell line [3]): No significant numbers of colonies were detected
colonies detected (U251 cell line [4]): No significant numbers of colonies were detected
colonies detected (XD456 cell line [5]): No significant numbers of colonies were detected
IBA1 intensity [6]: significant attenuation
number of microglia [6]: no differences
molecular function of down-regulated proteins [7]: down-regulation of RNA binding function
IL-10 mRNA (M2-like marker) [8]: decreasing
TGF-β1 mRNA (M2-like marker) [8]: increasing
YM1 mRNA (M2-like marker) [8]: increasing
Bcl2 and Mcl1 protein levels in cytoplasmic fractions [9]: dramatic reduction
cleaved caspase 3 and cleaved PARP (apoptosis) [9]: appearances of cleaved caspase 3 and cleaved PARP
HuR N/C ratio (HuR): reversed the N/C ratio back to the unstimulated state
interaction of the HuR protein with Bcl2 and Mcl1 mRNAs [10]: significant reduction
allodynia after acute injection ([11]; 10 mg/kg at 1 week, 30 and 60 min post injection (FIG. 21, Panel D)): significantly reversed allodynia
Von Frey withdrawal threshold ([11]; 10 mg/kg i.p. every 6 hours for 4 days, testing at 1 week (FIG. 21, Panel C)): large increase in withdrawal threshold
mechanical sensitivity ([11]; 15 mg/kg every 6 hours for 4 days, starting 1 h after injury, day 7 post-injury): preserved mechanical sensitivity
HuR, Bcl2 and Mcl1 immunostaining in tumors [12]: reduction of HuR, Bcl2, and Mcl1 expression
tumor mass in brain slices (EGFP signal) [12]: reduction in tumor mass
tumor progression (tumor reporter luminescence signal) ([12]; differences not statistically significant, P=0.07 second week, P=0.069 third week): reduction of tumor progression
recovery by Basso motor scale (BMS) and horizontal ladder test (HLT) (spinal cord injury): improvement in function; also recorded: improved scores
migration of untreated microglia ([13]; toward conditioned media from treated microglia): suppressed
monocyte and neutrophil migration ([13]; toward microglial and astroglial conditioned media, dose dependent): significant attenuation

From US12435091B2, “RNA-binding protein multimerization inhibitors and methods of use thereof” (THE UAB RESEARCH FOUNDATION, priority 2020, dated 2025)
